Measurements as given in PubChem BioAssay AID540275 (National Center for Advancing Translational Sciences (NCATS), 2011).
Out of some 320,000 compounds screened, about 620 (0.19%) were called active. The shares of active, inactive and inconclusive entries below differ from those in the screen. Rule as the data show it: active = activation above about 80%; inconclusive = between about 30% and that limit; inactive = weaker than that.

Chains of the proteins cited; added tags and fusions are not shown.
UniProt Q8NER1, whole entry, looked up: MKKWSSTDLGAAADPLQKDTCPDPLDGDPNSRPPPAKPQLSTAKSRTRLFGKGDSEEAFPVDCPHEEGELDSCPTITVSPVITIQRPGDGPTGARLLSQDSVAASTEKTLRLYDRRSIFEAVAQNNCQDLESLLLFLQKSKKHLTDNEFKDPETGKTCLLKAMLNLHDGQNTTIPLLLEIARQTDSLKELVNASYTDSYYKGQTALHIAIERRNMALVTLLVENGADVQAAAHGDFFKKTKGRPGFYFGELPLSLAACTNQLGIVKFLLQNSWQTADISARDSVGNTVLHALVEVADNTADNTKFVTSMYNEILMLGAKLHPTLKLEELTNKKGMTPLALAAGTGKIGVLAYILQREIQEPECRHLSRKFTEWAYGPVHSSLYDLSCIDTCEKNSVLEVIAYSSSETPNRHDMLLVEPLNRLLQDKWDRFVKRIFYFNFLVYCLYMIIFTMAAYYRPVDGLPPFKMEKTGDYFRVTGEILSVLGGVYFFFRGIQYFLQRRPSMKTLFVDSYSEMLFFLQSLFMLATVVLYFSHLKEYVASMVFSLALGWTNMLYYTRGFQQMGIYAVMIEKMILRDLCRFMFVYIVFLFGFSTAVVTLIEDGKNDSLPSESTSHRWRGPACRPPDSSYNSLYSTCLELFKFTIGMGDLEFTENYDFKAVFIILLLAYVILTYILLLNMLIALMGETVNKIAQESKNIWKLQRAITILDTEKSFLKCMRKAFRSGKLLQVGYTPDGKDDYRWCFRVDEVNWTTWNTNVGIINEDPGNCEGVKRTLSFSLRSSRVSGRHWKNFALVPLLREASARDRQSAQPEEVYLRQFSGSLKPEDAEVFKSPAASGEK

target: Transient receptor potential cation channel subfamily V member 1 (Homo sapiens) (UniProt Q8NER1); assay: HTS Assay for Compounds that Act as Agonists of the Vanilloid Receptor 1; settings: TRPV1-expressing cells, Fluo-8 calcium influx, agonist mode; at 8.33 µM, hits give high values; also: 0% is about no effect
How it was run: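 Fluo-8 calcium influx in TRPV1-expressing cells, kinetic read (ex 480/em 520 nm). Compound added and read 3 min for agonist activity, followed by capsaicin at EC20 final and 2 min further read for enhancement.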

With O=C(CCCCCn1c(=S)[nH]c2ccc(N3CCOCC3)cc2c1=O)NCc1ccccc1 as the molecule, how does the activation read?
Its activation is inactive: -0.374%.

c1ccc(-n2ncc3c(N4CCN(c5ccccn5)CC4)nc(N4CCCCCC4)nc32)cc1 was tested. Which activation did it give?
The activation was inactive: -4.62%.

With COc1ccc(C(=O)NCC(=O)N2CCN(c3ccccc3)CC2)cc1 as the molecule, how does the activation read?
Its activation is inactive: 0.748%.

COc1ccc(OC)c(/C=C/C(=O)Nc2ccc(OC)nc2)c1 was tested. Which activation did it give?
The activation was inconclusive: 51.5%.

CCc1ccc(Nc2nnc(SC3CCOC3=O)s2)cc1 (stereo not given) was tested. Which activation did it give?
The activation was active: 82.3%.

With CCOC(=O)C1CCCCN1S(=O)(=O)c1ccc2c(c1)CC(C)N2C(=O)C1CCC1 (stereo not given) as the molecule, how does the activation read?
Its activation is inconclusive: 38.6%.

With CCOC(=O)c1cc2cc3ccccc3cc2[nH]1 as the molecule, how does the activation read?
The activation was inconclusive: 51.5%.

With O=c1c2cnn(-c3ccccc3)c2ncn1Cc1cccc(Cl)c1 as the molecule, how does the activation read?
The activation was inconclusive: 37.7%.

How did the activation turn out when Cc1ccc(NC2CCCN(C(=O)c3cn4cc(Cl)ccc4n3)C2)cc1C (stereo not given) was run?
The activation was inconclusive: 50.8%.

With O=C(O)c1cc([N+](=O)[O-])ccc1N1CCC(Cc2ccccc2)CC1 as the molecule, how does the activation read?
The activation was inactive: -1.11%.

How did the activation turn out when COc1ccc(C(=O)Nc2ccc(S(=O)(=O)N3CCCC3)cc2)cc1 was run?
The activation was inconclusive: 67.6%.

How did the activation turn out when Cc1cc(C(=O)c2cnc(/N=C/N(C)C)s2)c(F)cc1Cl was run?
Its activation is inconclusive: 41%.

Cc1cccc(N2CCN(C(=O)CCS(=O)(=O)c3ccc4c(c3)NC(=O)CO4)CC2)c1C was tested. Which activation did it give?
Its activation is inconclusive: 69.4%.

Which activation does the source give for CCn1c(SCC(=O)Nc2nccc(C)n2)nc2ccccc21 here?
Its activation is inactive: 1.35%.

How did the activation turn out when CC(C)c1ccc(NC(=O)c2cc(S(=O)(=O)N3CCCC3)c[nH]2)cc1 was run?
The activation was inconclusive: 69.3%.

How did the activation turn out when COc1ccccc1-c1cn[nH]c(=S)n1 was run?
The activation was inconclusive: 35.8%.

CCS(=O)(=O)N1CCN(C(=O)COc2ccc(-c3ccccc3)cc2)CC1 was tested. Which activation did it give?
The activation was inconclusive: 62.9%.

How did the activation turn out when COc1ccccc1CNC(=O)CN(C)S(=O)(=O)c1ccc2c(c1)n(C)c(=O)c(=O)n2C was run?
Its activation is inactive: 2.74%.

With CC(=O)Nc1ccc(CC(=O)NCCC(c2ccccc2)c2ccccc2)cc1 as the molecule, how does the activation read?
Its activation is inconclusive: 60.4%.

For COc1ccc2oc(C(=O)NC3CCCCC3)c(C)c2c1, which activation is on record?
The activation was inconclusive: 74.5%.

How did the activation turn out when CC(C)CCN1C(=O)c2ccc(C(=O)N3CCCCC3)cc2C1=O was run?
Its activation is inconclusive: 47.8%.

How did the activation turn out when O=C(CN(Cc1ccccc1)C(=O)c1ccc2c(c1)OCCO2)NCc1ccc2c(c1)OCO2 was run?
The activation was inconclusive: 35.5%.

COc1ccc(-c2cc(C(F)(F)F)nc(S(=O)(=O)CCC(=O)N3CCOCC3)n2)cc1 was tested. Which activation did it give?
The activation was inactive: 20%.

With COc1ccc(CN(CCC(c2ccc(F)cc2)C2CCOC(C)(C)C2)C(=O)c2ccco2)cc1 (stereo not given) as the molecule, how does the activation read?
Its activation is inconclusive: 52.6%.

Which activation does the source give for CCOc1cccc(-c2nnc3sc(C4CCCCC4)nn23)c1 here?
Its activation is inconclusive: 32.3%.

For Nc1c(C(=O)N2CCOCC2)sc2nc3c(cc12)CCC3, which activation is on record?
Its activation is inactive: 0.863%.

Cc1cc(C(=O)COc2ccc(C#N)cc2)c(C)n1C1CC1 was tested. Which activation did it give?
Its activation is inconclusive: 40.3%.

For NC(=O)C1CCN(CC(=O)Nc2ccccc2Sc2ccc(Cl)cc2)CC1, which activation is on record?
Its activation is inconclusive: 49.2%.

O=C(CSc1ncccn1)N1CCN(C(c2ccccc2)c2ccccc2)CC1 was tested. Which activation did it give?
The activation was inconclusive: 45.6%.

How did the activation turn out when CCn1c(SCCOc2ccc(OC)cc2)nnc1C(CO)NC(=O)c1ccc(OC)cc1 (stereo not given) was run?
Its activation is inactive: 2.6%.

For Cc1cccc(/C=C2/SC(=O)N(Cc3ccccc3)C2=O)n1, which activation is on record?
Its activation is inconclusive: 30.6%.

How did the activation turn out when O=C(Nc1ccc(S(=O)(=O)N2CCCC2)cc1)C1CCN(S(=O)(=O)c2ccc(F)cc2)CC1 was run?
Its activation is inconclusive: 44.4%.

How did the activation turn out when CCC(Oc1ccccc1)C(=O)Nc1cc(C(F)(F)F)ccc1N1CCOCC1 (stereo not given) was run?
The activation was inconclusive: 62.4%.

For COc1cccc(NC(=O)NCCC2=CCCCC2)c1, which activation is on record?
The activation was inconclusive: 38.9%.

For CCOc1ccc(-c2c(C(=O)N/N=C/c3ccc(O)cc3)nnn2-c2nonc2N)cc1, which activation is on record?
The activation was inconclusive: 54.3%.

With O=C(NC1CCSc2ccccc21)c1ccccc1Br (stereo not given) as the molecule, how does the activation read?
The activation was inconclusive: 55.1%.

With Cc1sc(NC(=O)C2CSC3(C)CCC(=O)N23)nc1-c1ccccc1 (stereo not given) as the molecule, how does the activation read?
Its activation is inconclusive: 61%.

How did the activation turn out when Clc1ccc(CCNc2ncnc3nc[nH]c23)cc1 was run?
Its activation is inconclusive: 55.8%.

COc1ccc(S(=O)(=O)N2CCN(c3ccccn3)CC2)cc1[N+](=O)[O-] was tested. Which activation did it give?
Its activation is inconclusive: 32.1%.

With CCN(CC)C(=O)COc1cc(C)cc2oc(=O)cc(-c3ccccc3)c12 as the molecule, how does the activation read?
Its activation is inconclusive: 36.7%.

CC(C)NC(=S)NN=C1CCC(c2ccccc2)CC1 (stereo not given) was tested. Which activation did it give?
Its activation is inactive: 5.38%.

For O=C(NCCCCNC(=O)C1CCCC1)C1CCCC1, which activation is on record?
The activation was inactive: -0.178%.

With O=C(C1CCCN1S(=O)(=O)c1cccc2nsnc12)N1CCN(c2ccc(F)cc2)CC1 (stereo not given) as the molecule, how does the activation read?
Its activation is inactive: -0.229%.

Cc1oc(-c2ccccc2)nc1C(=O)OCC(=O)NC(=O)NCC(C)C was tested. Which activation did it give?
Its activation is inactive: 1.57%.

Cc1ccc(OC(=O)C2c3ccccc3Oc3ccccc32)cc1C was tested. Which activation did it give?
Its activation is inactive: 12.7%.

For O=C(c1cc(F)ccc1F)C1CCCN(C(=O)CSc2ccccn2)C1 (stereo not given), which activation is on record?
The activation was inactive: 7%.

For O=C(NC1CCN(Cc2ccccc2)CC1)c1ccc2c(c1)OCCCO2, which activation is on record?
The activation was inconclusive: 41.7%.

Which activation does the source give for O=C(Nc1ccc2c(c1)CCC2)Nc1ccccc1F here?
Its activation is inconclusive: 48.5%.

For CCCc1nn(C)c(C(=O)Nc2ccccc2)c1Cl, which activation is on record?
Its activation is inconclusive: 62.1%.

Which activation does the source give for COc1ccc(NC(=O)c2nnn(CC(=O)Nc3ccccc3OC)c2N)c(OC)c1 here?
Its activation is inactive: -0.0591%.

Which activation does the source give for O=C(NC1CCCCC1)c1ccc2snnc2c1 here?
Its activation is inconclusive: 51.7%.

How did the activation turn out when COc1ccccc1NC(=O)c1nnn(Cc2ccccc2)c1NC(=O)C(F)(F)F was run?
The activation was inactive: 2.64%.

With O=C(c1cc(-c2ccncc2)nc2ccc(Br)cc12)N1CCN(Cc2ccc3c(c2)OCO3)CC1 as the molecule, how does the activation read?
The activation was inactive: 11.9%.

How did the activation turn out when O=C(Nc1ccccc1)c1ccc(F)c(S(=O)(=O)N2CCOCC2)c1 was run?
The activation was inconclusive: 47.3%.

Which activation does the source give for O=C(c1ccc(COc2ccccc2Br)o1)N1CCCCCC1 here?
The activation was inconclusive: 41.8%.

With COc1ccc(CN2CNc3nc4ccccc4n3C2)cc1 as the molecule, how does the activation read?
The activation was inactive: 1.3%.

For N/C(=N\S(=O)(=O)c1cc(C(F)(F)F)cc(C(F)(F)F)c1)c1ccccc1, which activation is on record?
The activation was inconclusive: 47.4%.

O=C(Nc1ccccc1)c1ccc(NCc2ccco2)c(S(=O)(=O)N2CCOCC2)c1 was tested. Which activation did it give?
The activation was inconclusive: 45.2%.

CCOC(=O)CSc1nnc(CCCCCN2C(=O)c3cccc4cccc(c34)C2=O)o1 was tested. Which activation did it give?
The activation was inactive: 6.41%.

Which activation does the source give for C/C(=N\NC(=O)c1ccc(NS(=O)(=O)c2cccs2)cc1)c1cccs1 here?
Its activation is inactive: 1.52%.

Which activation does the source give for O=C(Nc1ccccc1N1CCCCC1)c1cc(S(=O)(=O)N2CCOCC2)ccc1F here?
Its activation is inconclusive: 54.6%.

For Cc1ccc(-c2nc(-c3ccccn3)no2)cc1Cl, which activation is on record?
Its activation is inconclusive: 36.9%.

How did the activation turn out when CCOC(=O)N1CCN(c2cc(C)c(C(C)=O)cc2F)CC1 was run?
The activation was inconclusive: 36.7%.

Which activation does the source give for COCCNC(=S)Nc1ccc(Cl)c(Cl)c1 here?
The activation was inconclusive: 38.1%.

For O=C(CN1CCCCCC1)Nc1ccc([N+](=O)[O-])cc1Cl, which activation is on record?
The activation was inactive: 18.8%.

How did the activation turn out when Cc1cccc(OCc2cc(-c3ccccc3)no2)c1C was run?
Its activation is inconclusive: 30.2%.

Which activation does the source give for COc1ccc(C(=O)NC(=S)Nc2ccc(N3CCCC3)cc2)cc1 here?
Its activation is inactive: -0.378%.

For O=C(Nc1ccccc1)N1CCC(C(=O)N2CCN(c3ccccc3F)CC2)CC1, which activation is on record?
Its activation is inconclusive: 38.5%.

How did the activation turn out when Nc1nnc(SCCCC(=O)c2ccccc2)s1 was run?
The activation was inconclusive: 39.2%.

For CC(=O)N1c2ccc(S(=O)(=O)NCCC(=O)NCc3ccc(N(C)C)cc3)cc2CC1C (stereo not given), which activation is on record?
Its activation is inactive: -1.41%.

For COc1ccc2nc(NC(=O)NC3CCCCC3)sc2c1, which activation is on record?
The activation was inconclusive: 30.1%.

COc1ccccc1CNC(=O)c1ccc(-c2ccccc2C(F)(F)F)o1 was tested. Which activation did it give?
Its activation is inconclusive: 30.3%.

For CC(C)(C)OC(=O)NOCC(=O)N(CC(=O)c1ccccc1)Cc1ccccc1, which activation is on record?
Its activation is inconclusive: 39.6%.

How did the activation turn out when CC/C(O)=C(/C#N)c1nnc2n1CCCCC2 was run?
The activation was inactive: -1.28%.

With COCCNC(=S)N1CCC(Cc2ccccc2)CC1 as the molecule, how does the activation read?
The activation was inconclusive: 34.5%.

With S=C(NCCC(c1ccccc1)c1ccccc1)Nc1ccc(Cl)cc1 as the molecule, how does the activation read?
Its activation is inconclusive: 48.4%.

CC(C)(C)NC(=S)N/N=C\c1ccc(-c2ccc([N+](=O)[O-])cc2)o1 was tested. Which activation did it give?
The activation was inactive: 16.5%.

With CCOC(=O)c1cnc(-n2nc(C)cc2C)nc1NCCc1ccccc1 as the molecule, how does the activation read?
Its activation is inconclusive: 66.6%.

With CCOc1cc(C(=O)NC(C)CCc2ccccc2)cc(OCC)c1OCC (stereo not given) as the molecule, how does the activation read?
Its activation is inconclusive: 50.5%.

With CCn1nc(NC(=O)c2cccs2)c2cc3ccccc3nc21 as the molecule, how does the activation read?
Its activation is inconclusive: 30.5%.

How did the activation turn out when Cc1ccc(NC(=O)OCc2cc(-c3ccccc3)on2)cc1 was run?
Its activation is inconclusive: 37.8%.

Which activation does the source give for CCN1C(=O)[C@@H]2[C@H](C1=O)[C@@H]1C(=O)Nc3ccccc3C(=O)N1[C@@H]2c1cccc(C)c1 here?
The activation was inactive: 0.382%.

CCc1ccc(NC(=O)c2ccc(Cn3cc([N+](=O)[O-])cn3)cc2)cc1 was tested. Which activation did it give?
Its activation is inconclusive: 70.3%.

Which activation does the source give for c1cc(Nc2ncnc3sccc23)cc(-c2nnc3n2CCCCC3)c1 here?
Its activation is inactive: -6.17%.

With CC1(C)CC(=O)c2sc(NS(=O)(=O)c3ccc(F)cc3)nc2C1 as the molecule, how does the activation read?
Its activation is inactive: -0.0189%.

With COc1ccc2nc(NC(=O)c3ccc(F)cc3)sc2c1 as the molecule, how does the activation read?
Its activation is inconclusive: 50.7%.

For COc1ccc(NC(=O)c2cc3ccccc3cc2O)cc1, which activation is on record?
Its activation is inconclusive: 52%.

How did the activation turn out when Cc1ccc(-c2cc(Cc3ccc(F)cc3)c(=O)[nH]n2)cc1 was run?
The activation was inconclusive: 37.6%.

Which activation does the source give for COC(=O)c1cnc(Nc2cccc(C(F)(F)F)c2)c([N+](=O)[O-])c1 here?
Its activation is inconclusive: 31.7%.

For Cc1ccc(-c2cc(C(=O)NCC3CCCO3)no2)cc1 (stereo not given), which activation is on record?
Its activation is inconclusive: 32.9%.
